Laboratory results published in US8697662B2, “Methods for treating Kaposi sarcoma” (PTC Therapeutics, Inc., priority 2009, dated 2014).
At least one compound was matched to its structure with a doubt left.

How the values were obtained:
[1] = tested on: HT1080 xenografts; assay: HT1080 xenograft tumor growth, Compound 1205, Compound 1330 and Compound #10; format: in vivo, athymic nude mice; conditions: Study 24a, 10 mg/kg QD
[2] = tested on: soluble VEGF121 and VEGF165 isoforms; assay: ELISA of soluble VEGF121/165 production in HeLa cells under hypoxia or normoxia; format: cell-based, human; conditions: stress (hypoxia)-induced VEGF
Method: Experimental Design. HeLa (human cervical carcinoma) cell cultures were established under normoxic conditions (21% oxygen). HeLa cells increase VEGF production 4- to 5-fold in response to hypoxia. […] At the completion of treatment, the conditioned media were collected and the VEGF protein levels were assayed in an enzyme-linked immunosorbent assay (ELISA) with primary antibodies that recognize the soluble VEGF121 and VEGF165 isoforms (R & D Systems, Minneapolis, Minn., USA). To ensure that decreases in VEGF concentration were not due to cytotoxicity, cultures were assayed using a standard assay ([…]-GLO® Luminescent Cell Viability Assay; Promega, Madison, Wis., USA) that measures total cellular adenosine triphosphate (ATP) concentrations as an indicator of cell viability.

[3] = tested on: HT1080 xenografts; assay: Intra-tumor and pathologic plasma human VEGF in HT1080 xenografts, Compound 1205 (studies #21, #23); format: in vivo, athymic nude mice; conditions: 0.5 or 3 mg/kg, 14 days
[4] = tested on: HT1080 cells; assay: Cell cycle analysis by propidium iodide flow cytometry in HT1080 cells (S-phase accumulation, Table 24); format: cell-based, human; conditions: HT1080, normoxic, 18 hours; Compound #10 0.3 nM to 100 nM, Compound 1205 10 nM
Method: Experimental Design. […] After treatment, cells were trypsinized, and stained with propidium iodide (PI) dye to measure DNA content of individual cells by flow cytometry. Output comprised histograms showing relative DNA content in 10,000 cells.
While compounds which cause greater than 20% of the cells to accumulate in S-phase at 100 nM are considered active, a larger percentage of cells may be accumulated in S-phase at lower doses depending on the Compound, as shown in FIG. 12 for example.

Compound | growth of HT1080 tumor cells in vivo (in words) [1] | inhibition of VEGF production (in words) [2] | volume normalized intra-tumor human VEGF levels (in words) [3] | cell cycle distribution, DNA content (in words) [4]
O=C(Oc1ccc(Cl)cc1)N1CCc2c([nH]c3ccc(Cl)cc23)[C@H]1c1ccc(OCC[C@H](O)CO)cc1 [Compound 1330] | overlapped with the growth of tumors in mice treated with 0.5% HPMC vehicle | – | – | –
O=C(Oc1ccc(Cl)cc1)N1CCc2c([nH]c3ccc(Cl)cc23)[C@@H]1c1ccc(OCC[C@H](O)CO)cc1 [Compound 1205] | significantly delayed growth | inhibit stress-induced VEGF production | significantly reduced | induced a redistribution of the cycling characteristics of the cell population
